Measured values as given in publication PMC8511299.
These are yes or no findings as the source states them, for the method shown. In cells and extracts the contact can be indirect. Some entries that bind do so weakly or less than the wild type.

Protein sequences, listed by entry. Tags and fused reporters are not part of them.
UniProt P28033: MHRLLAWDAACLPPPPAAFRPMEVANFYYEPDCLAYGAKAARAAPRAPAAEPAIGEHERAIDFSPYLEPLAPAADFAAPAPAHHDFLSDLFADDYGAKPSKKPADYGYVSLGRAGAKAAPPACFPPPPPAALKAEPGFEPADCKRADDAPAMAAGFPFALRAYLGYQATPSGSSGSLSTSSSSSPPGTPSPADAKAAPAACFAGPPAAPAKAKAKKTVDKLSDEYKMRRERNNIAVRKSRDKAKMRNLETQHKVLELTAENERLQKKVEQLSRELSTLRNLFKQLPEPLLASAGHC

Target: T1, Sirutin 2 (SIRT2) (mouse (endogenous in AML12)) (UniProt Q8VDQ8)
T1 sequence: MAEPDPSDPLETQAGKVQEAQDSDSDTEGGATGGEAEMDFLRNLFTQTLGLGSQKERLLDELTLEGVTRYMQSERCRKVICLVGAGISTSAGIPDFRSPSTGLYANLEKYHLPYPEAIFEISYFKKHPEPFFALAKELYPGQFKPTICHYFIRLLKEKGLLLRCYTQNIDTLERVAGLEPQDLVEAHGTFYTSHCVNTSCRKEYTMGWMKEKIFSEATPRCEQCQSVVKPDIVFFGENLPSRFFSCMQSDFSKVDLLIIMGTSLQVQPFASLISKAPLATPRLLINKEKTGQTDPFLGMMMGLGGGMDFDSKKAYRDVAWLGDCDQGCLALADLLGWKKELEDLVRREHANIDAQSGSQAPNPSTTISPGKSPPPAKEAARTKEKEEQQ
Test: co-IP; endogenous proteins in AML12 cells, with or without ethanol; C/EBPβ coimmunoprecipitated with the same loading amount of SIRT2

- binding: binds
Substance: CCAAT/enhancer-binding protein beta (C/EBPβ) (from UniProt P28033 1-296)
